Measurements reported in PubChem BioAssay AID652272 (Drosophila RNAi Screening Center, 2013)
The screen tested about 21,000 reagents; this is an unselected part of those that have a named target and a result. Over the whole deposit, 503 (2.4%) are marked active. 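Raw plate light values, not normalised; calls rest on replicate z-scores that were not deposited; hits include reporter decreases as well as increases.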 Names joined by + are all predicted targets of the reagent. No sequences are given here. Not given: the amount of reagent, the time to read-out.

Aim: 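Genes whose knock-down decreases or increases Hedgehog reporter output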 (primary screen)
Cells: Drosophila clone 8 (Cl8) cells
Knock-down reagent: long dsRNA against Drosophila genes
Read-out: 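Firefly light from a Hedgehog-responsive ptc promoter reporter and Renilla reference light, both read on a plate reader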
Direction: firefly Hh reporter signal: higher = more ptc reporter light; Renilla reference signal: higher = more Renilla control light
Active means: 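Called a hit if the two-replicate mean z-score lies below -2 or above +3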
Meaning of the calls: active = hit: reporter lowered or raised; inactive = not a hit

CG13110 (GeneID 34253) [DRSC02208] showed firefly Hh reporter signal, replicate 1 = 1.07e5; firefly Hh reporter signal, replicate 2 = 4.89e5; firefly Hh reporter signal, replicate 3 = 43043; Renilla reference signal, replicate 1 = 3026; Renilla reference signal, replicate 2 = 26773; inactive. After knock-down of Psf2 (GeneID 33641) [DRSC00516] the results were firefly Hh reporter signal, replicate 1 = 89660; firefly Hh reporter signal, replicate 2 = 58235; Renilla reference signal, replicate 1 = 653; Renilla reference signal, replicate 2 = 5251; inactive. Silencing of CG12206 (GeneID 31316) [DRSC17828] gave: firefly Hh reporter signal, replicate 1 = 76857; firefly Hh reporter signal, replicate 2 = 2.71e5; Renilla reference signal, replicate 1 = 1736; Renilla reference signal, replicate 2 = 9793; inactive. CG15539 (GeneID 43627) [DRSC15075] scored firefly Hh reporter signal, replicate 1 = 89511; firefly Hh reporter signal, replicate 2 = 93283; Renilla reference signal, replicate 1 = 3907; Renilla reference signal, replicate 2 = 2032; inactive. CG11044 (GeneID 37281) [DRSC06026] showed firefly Hh reporter signal, replicate 1 = 84822; firefly Hh reporter signal, replicate 2 = 73164; Renilla reference signal, replicate 1 = 2480; Renilla reference signal, replicate 2 = 4845; inactive. Usp2 (GeneID 33132) [DRSC20590] scored firefly Hh reporter signal, replicate 1 = 4.94e5; firefly Hh reporter signal, replicate 2 = 1.67e5; Renilla reference signal, replicate 1 = 30615; Renilla reference signal, replicate 2 = 4636; inactive.

Silencing of Usp2 (GeneID 33132) [DRSC20632] came out at: firefly Hh reporter signal, replicate 1 = 1.39e5; firefly Hh reporter signal, replicate 2 = 1.13e5; Renilla reference signal, replicate 1 = 2858; Renilla reference signal, replicate 2 = 2711; inactive. With knock-down of Usp2 (GeneID 33132) [DRSC20633], the screen gave firefly Hh reporter signal, replicate 1 = 57712; firefly Hh reporter signal, replicate 2 = 1.42e5; Renilla reference signal, replicate 1 = 1976; Renilla reference signal, replicate 2 = 8059; inactive. After knock-down of Arpc3A (GeneID 41917) [DRSC15596], the record shows firefly Hh reporter signal, replicate 1 = 46758; firefly Hh reporter signal, replicate 2 = 61776; Renilla reference signal, replicate 1 = 944; Renilla reference signal, replicate 2 = 2135; inactive. Against Dph1 (GeneID 39317) [DRSC09851], the entry reads firefly Hh reporter signal, replicate 1 = 87408; firefly Hh reporter signal, replicate 2 = 86581; Renilla reference signal, replicate 1 = 4037; Renilla reference signal, replicate 2 = 3528; inactive. Against Ilp3 (GeneID 39151) [DRSC10168] the deposit lists firefly Hh reporter signal, replicate 1 = 60358; firefly Hh reporter signal, replicate 2 = 70643; firefly Hh reporter signal, replicate 3 = 74860; Renilla reference signal, replicate 1 = 6836; Renilla reference signal, replicate 2 = 5616; inactive. With knock-down of Tango2 (GeneID 32319) [DRSC19394] the results were firefly Hh reporter signal, replicate 1 = 90653; firefly Hh reporter signal, replicate 2 = 72882; Renilla reference signal, replicate 1 = 1639; Renilla reference signal, replicate 2 = 1042; inactive.

After knock-down of CG14262 (GeneID 43286) [DRSC14757], the record shows firefly Hh reporter signal, replicate 1 = 88389; firefly Hh reporter signal, replicate 2 = 97900; Renilla reference signal, replicate 1 = 2888; Renilla reference signal, replicate 2 = 3005; inactive. With knock-down of Pal1 (GeneID 36033) [DRSC06106], the record shows firefly Hh reporter signal, replicate 1 = 71760; firefly Hh reporter signal, replicate 2 = 42665; Renilla reference signal, replicate 1 = 2820; Renilla reference signal, replicate 2 = 1735; inactive.

Already shown: entries from further up.
Dph1 (GeneID 39317) [DRSC09851]: firefly Hh reporter signal, replicate 1 = 87408; firefly Hh reporter signal, replicate 2 = 86581; Renilla reference signal, replicate 1 = 4037; Renilla reference signal, replicate 2 = 3528; outcome = inactive
Ilp3 (GeneID 39151) [DRSC10168]: firefly Hh reporter signal, replicate 1 = 60358; firefly Hh reporter signal, replicate 2 = 70643; firefly Hh reporter signal, replicate 3 = 74860; Renilla reference signal, replicate 1 = 6836; Renilla reference signal, replicate 2 = 5616; outcome = inactive

Continued.
With knock-down of rho (GeneID 38168) [DRSC08734], the screen gave firefly Hh reporter signal, replicate 1 = 93536; firefly Hh reporter signal, replicate 2 = 49715; Renilla reference signal, replicate 1 = 2773; Renilla reference signal, replicate 2 = 3808; inactive. Depletion of jar (GeneID 42889) [DRSC16974] resulted in: firefly Hh reporter signal, replicate 1 = 4.59e5; firefly Hh reporter signal, replicate 2 = 1.03e5; Renilla reference signal, replicate 1 = 24626; Renilla reference signal, replicate 2 = 3085; inactive. After knock-down of eIF1A (GeneID 44260) [DRSC16937] the results were firefly Hh reporter signal, replicate 1 = 4.10e5; firefly Hh reporter signal, replicate 2 = 65649; Renilla reference signal, replicate 1 = 27588; Renilla reference signal, replicate 2 = 2534; inactive. Against RPA1 (GeneID 40972) [DRSC16830] the deposit lists firefly Hh reporter signal, replicate 1 = 71777; firefly Hh reporter signal, replicate 2 = 90965; Renilla reference signal, replicate 1 = 3173; Renilla reference signal, replicate 2 = 3843; inactive. CG15465 (GeneID 31434) [DRSC18048] showed firefly Hh reporter signal, replicate 1 = 1.07e5; firefly Hh reporter signal, replicate 2 = 3.08e5; Renilla reference signal, replicate 1 = 3989; Renilla reference signal, replicate 2 = 10779; inactive. Against CG42380 + CG42379 + PIG-M + 1 more [DRSC03884] the deposit lists firefly Hh reporter signal, replicate 1 = 1.05e5; firefly Hh reporter signal, replicate 2 = 2.33e5; Renilla reference signal, replicate 1 = 1907; Renilla reference signal, replicate 2 = 10224; inactive.

After knock-down of CG42380 + CG42379 + PIG-M + 1 more [DRSC04580] the results were firefly Hh reporter signal, replicate 1 = 88583; firefly Hh reporter signal, replicate 2 = 44309; Renilla reference signal, replicate 1 = 3317; Renilla reference signal, replicate 2 = 1786; inactive.
